Results are given in words; binding and its absence hold for the method and conditions named. In cells and extracts the contact can be indirect. Some binding calls cover weakened binding; strength is not graded here.
Target: IGF2BP2 (human (endogenous in ASC hTERT adipocytes)) (UniProt Q9Y6M1)
Test: co-IP; immunoprecipitation of endogenous IGF2BP2 from ASC hTERT adipocytes, western blot probed for HuR

Amino acid sequences for entries named in this document (tags omitted).
UniProt Q9Y6M1: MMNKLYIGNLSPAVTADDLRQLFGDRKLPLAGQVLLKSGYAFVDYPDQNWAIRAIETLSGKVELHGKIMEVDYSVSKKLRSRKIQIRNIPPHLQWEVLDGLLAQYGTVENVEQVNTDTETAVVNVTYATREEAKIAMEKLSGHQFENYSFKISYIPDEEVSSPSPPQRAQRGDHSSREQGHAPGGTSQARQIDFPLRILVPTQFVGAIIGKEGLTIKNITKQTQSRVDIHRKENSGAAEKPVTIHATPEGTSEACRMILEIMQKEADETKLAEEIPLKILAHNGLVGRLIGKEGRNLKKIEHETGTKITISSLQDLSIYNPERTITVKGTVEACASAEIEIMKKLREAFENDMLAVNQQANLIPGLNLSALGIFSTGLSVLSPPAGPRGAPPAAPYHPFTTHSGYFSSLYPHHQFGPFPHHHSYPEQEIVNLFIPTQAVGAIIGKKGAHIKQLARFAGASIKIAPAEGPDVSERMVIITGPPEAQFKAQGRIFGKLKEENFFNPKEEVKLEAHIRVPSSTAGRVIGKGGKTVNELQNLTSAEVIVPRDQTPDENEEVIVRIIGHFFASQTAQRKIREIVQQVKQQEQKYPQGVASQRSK
UniProt Q15717: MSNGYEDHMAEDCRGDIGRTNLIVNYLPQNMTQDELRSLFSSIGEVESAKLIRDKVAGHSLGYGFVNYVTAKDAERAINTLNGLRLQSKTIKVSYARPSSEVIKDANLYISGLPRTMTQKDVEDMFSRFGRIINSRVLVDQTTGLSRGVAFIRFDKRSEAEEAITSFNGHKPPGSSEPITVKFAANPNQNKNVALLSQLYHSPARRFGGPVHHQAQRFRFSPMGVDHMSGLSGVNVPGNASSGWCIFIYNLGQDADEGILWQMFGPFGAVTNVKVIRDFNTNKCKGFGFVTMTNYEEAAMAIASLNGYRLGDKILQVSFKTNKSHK

binding: binds
Substance: HuR (from UniProt Q15717 1-326)

Reference: paper PMC11334222
